At least one structure is not confirmed: it was looked up by name or label, or the drawing left a doubt.
System: EE2-227 antibody
Assay: Cross-reactivity test with the EE2-ELISA kit
Format: binding, mouse
Conditions: from IC50 (50% degree of inhibition) of each estrogen's standard curve relative to EE2
Experimental: 100 μL/well of a quantification sample or the “EE2 standard solution” (both are 10% methanol solutions) and 100 μL/well of the “antigen-enzyme conjugate solution” were mixed on a “mixing microplate”.
The “mixed solution” prepared in (3) was pipetted into the “anti-EE2 monoclonal antibody-immobilized plate” in a volume of 100 μl/well and reacted at room temperature for 60 minutes.
The “coloration reagent” prepared in (7) was added in the volume of 100 μL/well, the mixture was reacted at room temperature for 30 minutes, and the “coloration-stop solution” was added in a volume of 100 μL/well to stop the reaction.
The absorbance was measured at a wavelength of 450 nm with a plate reader, and the concentration of EE2 in the sample was determined from a standard curve.
The EE2 concentration was plotted on the ordinate [sic], and the ratio of the absorbance at each EE2 concentration to the absorbance at the concentration of 0 μg/L EE2 (degree of inhibition, B/BO %) was plotted on the abscissa [sic].
For the estrogens shown in [Table 2], the respective standard curves were prepared in the same manner as in Example 4, and the EE2 concentration (IC50) at which the degree of inhibition was 50% was determined and the cross-reactivity was determined from the following equation, and the results are shown in [Table 2]. Cross-reactivity (%)=[…]

In the case of `C[C@]12CC[C@@H]3c4ccc(O)cc4CC[C@H]3[C@@H]1CCC2=O` [Estrone (E1), Estrone], the “Cross-reactivity (%) of EE2-227 antibody” value is reported as under 0.2%.

— patent US7138241B2, “Hybridoma, an antibody resistant to an interfering substance, and a kit for immunological analysis” (Japan Envirochemicals, Ltd., priority 2001, dated 2006)
